No constants are given. Whether binding was seen depends on the method and setting. Binding seen in cells or lysates may run through a third protein. Binding can be weak; no strength is given.
Molecular target: mGFP-BAZ2A_(ΔTAM) (UniProt Q91YE5)
Test: co-IP; GFP-Trap magnetic agarose on MNase-digested nuclear extract (200 mM NaCl) of ESC lines, overnight at 4°C; BAZ2A detected with BAZ2A antibodies

Protein sequences, listed by entry. Tags and fused reporters are not part of them. Lines headed by an entry give the natural chain unless they say otherwise; changes in a name come on top.
UniProt Q91YE5: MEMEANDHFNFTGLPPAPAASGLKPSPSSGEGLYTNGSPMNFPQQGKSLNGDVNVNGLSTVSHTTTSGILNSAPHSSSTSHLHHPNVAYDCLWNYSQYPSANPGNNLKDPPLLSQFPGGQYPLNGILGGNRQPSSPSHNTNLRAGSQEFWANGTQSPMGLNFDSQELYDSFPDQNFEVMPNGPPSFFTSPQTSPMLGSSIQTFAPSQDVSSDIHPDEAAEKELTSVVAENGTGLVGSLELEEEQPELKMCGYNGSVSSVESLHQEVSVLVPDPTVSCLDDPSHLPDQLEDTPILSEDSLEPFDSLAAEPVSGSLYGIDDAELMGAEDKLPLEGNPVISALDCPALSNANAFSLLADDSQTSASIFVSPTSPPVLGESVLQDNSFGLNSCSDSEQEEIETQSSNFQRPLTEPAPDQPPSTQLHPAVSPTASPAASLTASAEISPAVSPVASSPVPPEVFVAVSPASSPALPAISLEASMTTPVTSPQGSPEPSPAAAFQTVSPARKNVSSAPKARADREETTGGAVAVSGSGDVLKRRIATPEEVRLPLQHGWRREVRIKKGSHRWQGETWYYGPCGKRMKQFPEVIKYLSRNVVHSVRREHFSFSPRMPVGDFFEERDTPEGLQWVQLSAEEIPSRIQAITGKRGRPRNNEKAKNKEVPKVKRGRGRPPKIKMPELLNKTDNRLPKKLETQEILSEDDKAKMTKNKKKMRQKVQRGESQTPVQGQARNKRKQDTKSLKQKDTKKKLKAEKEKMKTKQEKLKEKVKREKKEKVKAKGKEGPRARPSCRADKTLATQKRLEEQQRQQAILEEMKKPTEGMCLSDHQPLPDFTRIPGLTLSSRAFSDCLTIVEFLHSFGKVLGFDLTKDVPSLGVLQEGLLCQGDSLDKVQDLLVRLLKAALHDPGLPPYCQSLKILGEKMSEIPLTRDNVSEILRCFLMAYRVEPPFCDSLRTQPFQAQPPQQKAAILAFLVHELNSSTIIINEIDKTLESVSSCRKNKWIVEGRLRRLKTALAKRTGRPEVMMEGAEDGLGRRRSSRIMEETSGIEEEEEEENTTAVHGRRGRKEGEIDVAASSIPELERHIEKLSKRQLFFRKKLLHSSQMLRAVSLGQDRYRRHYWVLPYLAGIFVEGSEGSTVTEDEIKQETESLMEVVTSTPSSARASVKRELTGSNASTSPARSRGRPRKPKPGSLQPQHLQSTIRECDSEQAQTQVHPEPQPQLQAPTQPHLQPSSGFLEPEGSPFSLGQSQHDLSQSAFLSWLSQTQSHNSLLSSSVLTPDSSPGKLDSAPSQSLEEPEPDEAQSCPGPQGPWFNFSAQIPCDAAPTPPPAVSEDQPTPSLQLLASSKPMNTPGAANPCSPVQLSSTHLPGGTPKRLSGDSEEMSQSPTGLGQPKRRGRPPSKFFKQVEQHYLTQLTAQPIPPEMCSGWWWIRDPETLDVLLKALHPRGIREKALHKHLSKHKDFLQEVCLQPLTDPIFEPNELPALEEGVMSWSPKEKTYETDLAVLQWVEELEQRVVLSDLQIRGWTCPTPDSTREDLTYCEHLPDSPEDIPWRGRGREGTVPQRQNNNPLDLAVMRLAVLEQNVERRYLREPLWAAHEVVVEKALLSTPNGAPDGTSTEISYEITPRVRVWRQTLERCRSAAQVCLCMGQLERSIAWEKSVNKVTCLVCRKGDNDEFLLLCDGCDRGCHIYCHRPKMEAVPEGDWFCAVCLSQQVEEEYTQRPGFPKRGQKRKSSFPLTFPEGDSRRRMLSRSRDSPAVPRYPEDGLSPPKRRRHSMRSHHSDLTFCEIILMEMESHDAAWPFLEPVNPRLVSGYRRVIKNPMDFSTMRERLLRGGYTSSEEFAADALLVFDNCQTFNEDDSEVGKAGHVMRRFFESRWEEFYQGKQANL

binding: binds
Substance: endogenous BAZ2A (from UniProt Q91YE5 1-1889)
